At least one compound was matched to its structure with a doubt left.
Columns and labels:
[1] = tested on: SHSY5Y overexpressing A53T eGFP; experiment: Amount of aggregated α-syn in differentiated cells overexpressing A53T eGFP, confocal microscopy; format: cell-based; settings: 10 μM SKI, 0.5 μM saracatinib; differentiated with 50 μM RA
SHSY5Y cell line = experiment: α-syn intercellular migration, two-chamber co-culture, immunostaining and confocal microscopy; format: cell-based; settings: 0.1 μM saracatinib, 10 μM SKI; co-culture 12 hours with SHSY5Y overexpressing α-syn; vs PBS control
Experimental: The SHSY5Y cell overexpressing alpha-synuclein was seeded at 4×10^4 in a 12-well plate in an insert well using a two-chamber system, and the SHSY5Y cell line was seeded at 4×10^4 on the cover glass. The next day, the insert well was transferred to a 12-well cover glass, and during co-culture for 12 hours, the SHSY5Y cell line was treated with 0.1 μM saracatinib and 10 μM SKI (c-src kinase inhibitor I), which are c-src inhibitors, and then alpha-synuclein in SHSY5Y cell line on the cover glass was immunostained (α-syn: red, nucleus: blue) and observed using a confocal microscope to confirm that alpha-synuclein was migrated from SHSY5Y overexpressing alpha-synuclein to SHSY5Y not overexpressing alpha-synuclein.
Next, c-src knockdown SHSY5Y cell lines (KD #1 and KD #2), constructed using shRNAs of […], and dopaminergic neuronal cell line SHSY5Y overexpressing α-syn were co-cultured for 12 hours using a two-chamber system. The co-culture will be described in brief. SHSY5Y cells were seeded at a concentration of 4×10^4 cells/well on a 12-well cover glass. […]

CN1CCN(CCOc2cc(OC3CCOCC3)c3c(Nc4c(Cl)ccc5c4OCO5)ncnc3c2)CC1 [saracatinib]
amount of aggregated α-syn [1]: decreased | migration of α-syn (SHSY5Y cell line): reduced
